According to the supplement of paper PMC11732987, “Enantioselective OTUD7B fragment discovery through chemoproteomics screening and high-throughput optimisation” (Communications Chemistry, 2025):
The other results are listed elsewhere or left out. The data scatter; read single values as rough.

Chains of the proteins cited; added tags and fusions are not shown. Lines headed by an entry give the natural chain unless they say otherwise; changes in a name come on top. Residues count along the entry.
UniProt Q9BTA9: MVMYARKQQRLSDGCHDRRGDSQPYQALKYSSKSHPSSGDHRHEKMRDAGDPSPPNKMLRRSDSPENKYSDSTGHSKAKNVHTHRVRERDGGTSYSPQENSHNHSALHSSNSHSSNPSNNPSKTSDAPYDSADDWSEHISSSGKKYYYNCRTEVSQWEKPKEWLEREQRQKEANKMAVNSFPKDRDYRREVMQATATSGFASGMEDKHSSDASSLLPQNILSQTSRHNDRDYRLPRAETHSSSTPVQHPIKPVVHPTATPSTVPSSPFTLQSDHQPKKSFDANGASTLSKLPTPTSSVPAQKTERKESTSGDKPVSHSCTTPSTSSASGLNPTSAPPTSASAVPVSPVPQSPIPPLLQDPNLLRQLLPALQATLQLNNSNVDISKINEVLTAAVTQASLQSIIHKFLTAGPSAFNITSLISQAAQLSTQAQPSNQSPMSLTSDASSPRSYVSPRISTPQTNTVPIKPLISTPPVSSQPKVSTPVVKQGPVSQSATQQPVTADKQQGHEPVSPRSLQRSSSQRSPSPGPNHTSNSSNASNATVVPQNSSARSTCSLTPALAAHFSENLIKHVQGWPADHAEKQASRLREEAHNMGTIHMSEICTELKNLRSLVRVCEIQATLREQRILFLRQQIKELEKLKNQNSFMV
UniProt Q8IWB7: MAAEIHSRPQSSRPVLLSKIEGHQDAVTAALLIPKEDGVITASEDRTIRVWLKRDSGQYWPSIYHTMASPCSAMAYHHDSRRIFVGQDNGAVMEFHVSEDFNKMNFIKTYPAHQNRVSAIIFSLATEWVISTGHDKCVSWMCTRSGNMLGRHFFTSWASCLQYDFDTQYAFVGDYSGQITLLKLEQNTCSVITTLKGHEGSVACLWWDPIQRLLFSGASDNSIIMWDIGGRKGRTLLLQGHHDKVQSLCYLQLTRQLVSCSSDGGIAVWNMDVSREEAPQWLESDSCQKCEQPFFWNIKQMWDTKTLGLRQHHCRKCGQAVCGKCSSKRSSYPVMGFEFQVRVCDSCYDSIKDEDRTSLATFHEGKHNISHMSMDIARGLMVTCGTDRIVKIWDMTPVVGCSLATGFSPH
UniProt Q9HAD4: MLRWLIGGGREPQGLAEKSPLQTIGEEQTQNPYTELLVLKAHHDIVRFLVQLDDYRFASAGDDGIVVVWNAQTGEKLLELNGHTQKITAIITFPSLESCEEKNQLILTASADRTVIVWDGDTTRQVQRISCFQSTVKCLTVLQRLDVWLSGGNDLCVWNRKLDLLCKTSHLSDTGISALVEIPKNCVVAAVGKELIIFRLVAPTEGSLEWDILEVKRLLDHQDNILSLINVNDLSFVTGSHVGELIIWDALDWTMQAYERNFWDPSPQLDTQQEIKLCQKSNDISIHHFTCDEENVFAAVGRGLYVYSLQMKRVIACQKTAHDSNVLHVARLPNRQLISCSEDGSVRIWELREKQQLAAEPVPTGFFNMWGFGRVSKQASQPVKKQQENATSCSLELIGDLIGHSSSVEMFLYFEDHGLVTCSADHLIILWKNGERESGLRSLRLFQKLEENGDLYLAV
UniProt Q99986: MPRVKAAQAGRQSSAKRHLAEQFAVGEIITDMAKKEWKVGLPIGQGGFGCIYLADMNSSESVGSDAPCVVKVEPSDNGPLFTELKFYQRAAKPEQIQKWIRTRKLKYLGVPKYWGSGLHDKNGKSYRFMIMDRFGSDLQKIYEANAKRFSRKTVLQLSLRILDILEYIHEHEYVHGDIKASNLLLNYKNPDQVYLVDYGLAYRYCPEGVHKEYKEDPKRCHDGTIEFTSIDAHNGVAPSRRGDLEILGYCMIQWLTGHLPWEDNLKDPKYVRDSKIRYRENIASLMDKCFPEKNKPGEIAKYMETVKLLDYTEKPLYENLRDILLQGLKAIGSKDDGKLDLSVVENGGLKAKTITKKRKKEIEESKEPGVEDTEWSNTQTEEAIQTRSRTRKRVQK
UniProt Q562E7: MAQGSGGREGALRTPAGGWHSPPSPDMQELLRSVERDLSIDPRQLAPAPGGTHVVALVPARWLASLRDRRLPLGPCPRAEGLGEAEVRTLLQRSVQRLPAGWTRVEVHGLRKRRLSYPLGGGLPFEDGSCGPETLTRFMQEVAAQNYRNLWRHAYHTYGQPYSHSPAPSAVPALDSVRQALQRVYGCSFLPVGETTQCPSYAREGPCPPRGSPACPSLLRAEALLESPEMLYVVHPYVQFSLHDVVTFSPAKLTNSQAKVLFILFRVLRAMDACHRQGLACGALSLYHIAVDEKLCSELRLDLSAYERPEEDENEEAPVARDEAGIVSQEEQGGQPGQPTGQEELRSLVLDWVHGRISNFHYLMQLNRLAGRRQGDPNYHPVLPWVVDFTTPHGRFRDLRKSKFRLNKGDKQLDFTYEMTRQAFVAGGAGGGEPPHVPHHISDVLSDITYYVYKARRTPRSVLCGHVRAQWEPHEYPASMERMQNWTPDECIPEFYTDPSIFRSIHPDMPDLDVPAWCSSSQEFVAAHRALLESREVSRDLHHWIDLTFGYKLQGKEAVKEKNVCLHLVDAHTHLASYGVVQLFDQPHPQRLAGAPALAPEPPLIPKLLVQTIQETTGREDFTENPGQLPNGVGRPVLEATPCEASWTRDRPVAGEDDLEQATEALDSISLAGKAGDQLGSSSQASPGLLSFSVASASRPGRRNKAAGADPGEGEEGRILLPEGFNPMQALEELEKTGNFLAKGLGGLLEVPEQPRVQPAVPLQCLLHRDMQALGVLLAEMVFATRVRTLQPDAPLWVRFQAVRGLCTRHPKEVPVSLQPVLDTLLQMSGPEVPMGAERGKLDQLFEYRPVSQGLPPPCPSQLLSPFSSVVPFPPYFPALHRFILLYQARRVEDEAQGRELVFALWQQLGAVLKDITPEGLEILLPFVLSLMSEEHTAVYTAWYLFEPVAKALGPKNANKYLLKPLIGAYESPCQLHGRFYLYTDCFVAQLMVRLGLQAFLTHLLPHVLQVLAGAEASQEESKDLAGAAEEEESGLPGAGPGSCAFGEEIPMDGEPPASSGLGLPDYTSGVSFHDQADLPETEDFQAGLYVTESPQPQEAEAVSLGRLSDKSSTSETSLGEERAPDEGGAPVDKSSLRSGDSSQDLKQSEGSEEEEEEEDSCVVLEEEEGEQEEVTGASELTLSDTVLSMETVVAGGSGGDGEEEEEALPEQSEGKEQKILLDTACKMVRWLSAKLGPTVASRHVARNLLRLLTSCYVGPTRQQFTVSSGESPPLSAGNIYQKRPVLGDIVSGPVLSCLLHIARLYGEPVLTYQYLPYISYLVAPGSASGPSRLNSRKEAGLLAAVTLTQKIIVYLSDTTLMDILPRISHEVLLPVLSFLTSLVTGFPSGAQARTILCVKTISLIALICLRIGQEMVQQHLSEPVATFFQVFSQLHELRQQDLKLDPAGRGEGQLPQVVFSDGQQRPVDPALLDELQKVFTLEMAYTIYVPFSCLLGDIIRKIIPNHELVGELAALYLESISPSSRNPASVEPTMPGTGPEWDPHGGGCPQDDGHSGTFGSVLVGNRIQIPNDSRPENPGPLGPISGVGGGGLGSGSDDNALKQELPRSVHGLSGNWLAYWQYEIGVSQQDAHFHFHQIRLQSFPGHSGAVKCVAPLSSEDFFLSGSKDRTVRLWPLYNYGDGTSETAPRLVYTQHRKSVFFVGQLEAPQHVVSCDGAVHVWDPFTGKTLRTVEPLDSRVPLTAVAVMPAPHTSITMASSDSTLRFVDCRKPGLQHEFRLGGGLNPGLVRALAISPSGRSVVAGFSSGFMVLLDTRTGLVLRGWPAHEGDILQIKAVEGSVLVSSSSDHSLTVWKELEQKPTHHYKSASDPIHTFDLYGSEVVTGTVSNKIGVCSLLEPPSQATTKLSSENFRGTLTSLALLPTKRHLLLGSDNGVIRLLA
UniProt Q7Z5U6: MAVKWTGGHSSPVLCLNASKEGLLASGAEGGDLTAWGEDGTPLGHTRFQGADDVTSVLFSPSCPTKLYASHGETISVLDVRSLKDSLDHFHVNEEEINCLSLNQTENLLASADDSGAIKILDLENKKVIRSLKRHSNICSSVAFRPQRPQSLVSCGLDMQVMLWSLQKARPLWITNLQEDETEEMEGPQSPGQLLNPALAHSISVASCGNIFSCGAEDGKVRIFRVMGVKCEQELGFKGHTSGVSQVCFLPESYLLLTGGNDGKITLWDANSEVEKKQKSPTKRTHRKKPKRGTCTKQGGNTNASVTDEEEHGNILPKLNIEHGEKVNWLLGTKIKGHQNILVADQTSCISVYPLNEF
UniProt Q9ULM3, 332-364: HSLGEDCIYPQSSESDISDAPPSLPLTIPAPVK
UniProt Q9H869: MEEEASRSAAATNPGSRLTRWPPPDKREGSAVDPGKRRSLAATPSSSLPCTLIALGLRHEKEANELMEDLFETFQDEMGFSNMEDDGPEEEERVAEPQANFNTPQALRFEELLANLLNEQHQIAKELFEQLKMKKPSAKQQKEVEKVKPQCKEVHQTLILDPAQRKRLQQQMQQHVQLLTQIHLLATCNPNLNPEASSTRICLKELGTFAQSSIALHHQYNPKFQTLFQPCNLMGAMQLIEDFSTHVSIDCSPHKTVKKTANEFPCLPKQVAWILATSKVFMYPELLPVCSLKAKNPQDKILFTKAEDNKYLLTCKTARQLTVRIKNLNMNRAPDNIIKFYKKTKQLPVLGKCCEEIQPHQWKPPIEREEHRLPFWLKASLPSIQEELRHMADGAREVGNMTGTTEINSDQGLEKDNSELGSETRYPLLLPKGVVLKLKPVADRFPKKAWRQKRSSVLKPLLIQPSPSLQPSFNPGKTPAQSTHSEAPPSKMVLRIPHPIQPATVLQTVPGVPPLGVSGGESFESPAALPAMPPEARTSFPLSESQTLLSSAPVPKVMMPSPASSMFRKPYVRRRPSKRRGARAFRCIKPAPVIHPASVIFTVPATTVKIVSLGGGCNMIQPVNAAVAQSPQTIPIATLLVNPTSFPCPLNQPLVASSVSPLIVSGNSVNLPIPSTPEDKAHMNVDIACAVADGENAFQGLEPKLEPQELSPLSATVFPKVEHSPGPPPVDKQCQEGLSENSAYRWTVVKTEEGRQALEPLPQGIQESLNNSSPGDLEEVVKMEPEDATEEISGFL
UniProt Q9UNX4: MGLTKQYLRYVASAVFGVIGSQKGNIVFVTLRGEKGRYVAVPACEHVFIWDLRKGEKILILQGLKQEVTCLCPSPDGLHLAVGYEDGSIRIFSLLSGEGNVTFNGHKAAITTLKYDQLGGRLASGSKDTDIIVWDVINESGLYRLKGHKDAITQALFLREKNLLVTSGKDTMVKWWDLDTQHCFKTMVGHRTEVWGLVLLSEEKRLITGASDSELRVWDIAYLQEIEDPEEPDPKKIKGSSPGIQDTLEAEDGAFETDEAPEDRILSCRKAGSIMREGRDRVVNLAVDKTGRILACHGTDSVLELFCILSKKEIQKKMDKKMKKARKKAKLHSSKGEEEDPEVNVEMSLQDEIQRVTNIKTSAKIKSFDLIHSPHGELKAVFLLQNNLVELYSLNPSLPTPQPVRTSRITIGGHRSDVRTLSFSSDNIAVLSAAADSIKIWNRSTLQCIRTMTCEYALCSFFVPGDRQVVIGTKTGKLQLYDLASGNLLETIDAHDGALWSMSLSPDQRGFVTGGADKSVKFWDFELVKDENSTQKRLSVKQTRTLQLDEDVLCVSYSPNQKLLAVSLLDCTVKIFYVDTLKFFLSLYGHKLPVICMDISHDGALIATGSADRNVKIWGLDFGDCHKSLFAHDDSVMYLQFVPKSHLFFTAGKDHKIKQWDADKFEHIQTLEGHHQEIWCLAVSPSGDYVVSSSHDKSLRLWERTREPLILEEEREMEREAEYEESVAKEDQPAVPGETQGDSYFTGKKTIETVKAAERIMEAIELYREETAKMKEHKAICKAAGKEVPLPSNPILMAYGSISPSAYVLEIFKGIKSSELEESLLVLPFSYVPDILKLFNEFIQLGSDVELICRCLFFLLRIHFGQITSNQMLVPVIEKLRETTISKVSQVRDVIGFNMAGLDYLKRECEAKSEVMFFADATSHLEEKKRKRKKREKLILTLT
UniProt A8MPS7: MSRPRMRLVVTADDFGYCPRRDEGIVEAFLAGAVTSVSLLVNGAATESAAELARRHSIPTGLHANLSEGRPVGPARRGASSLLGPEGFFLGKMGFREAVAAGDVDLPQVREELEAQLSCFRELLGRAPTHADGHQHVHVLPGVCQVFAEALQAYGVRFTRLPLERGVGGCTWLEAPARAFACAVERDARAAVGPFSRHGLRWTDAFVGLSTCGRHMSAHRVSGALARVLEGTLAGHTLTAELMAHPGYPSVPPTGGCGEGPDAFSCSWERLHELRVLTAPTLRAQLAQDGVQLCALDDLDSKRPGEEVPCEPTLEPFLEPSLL

Compound: ClCC(=O)N[C@H]1CCCc2ccccc12
Assay: log2 mean competition ratio of IA-DTB cysteine labelling (DMSO/compound) (log2 ratio); higher = stronger cysteine engagement by compound
Conditions: 200 µM; treatment time: 4 h; cell line lysate: HEK293T
Experimental: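 IA-DTB competitive cysteine chemoproteomics in HEK293T RIPA lysate. Lysates were treated with compound 29 or 30 at 50 or 200 µM for 4 h, then IA-DTB (500 µM, 1 h), trypsin-digested, NeutrAvidin-enriched and analysed by diaPASEF. Competition ratio = intensity DMSO / intensity compound (n=4 treated, n=64 DMSO); binding: mean log2 CR ≥ 1 and p ≤ 0.05 plus QC filters. Target is the cysteine site.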

Target | log2 mean competition ratio
WAC C15 (UniProt Q9BTA9) | 0.111
WSCD2 C509 | -0.0402
WDFY3 C16 (UniProt Q8IZQ1) | 0.319
VPS35L C925 (UniProt Q7Z3J2) | 0.026
WDR62 C826 (UniProt O43379) | 0.263
WDFY1 C287 (UniProt Q8IWB7) | -0.278
WDR41 C340 (UniProt Q9HAD4) | 0.0522
WDFY3 C3027 (UniProt Q8IZQ1) | -0.367
VPS51 C226 (UniProt Q9UID3) | 0.0473
VRK1 C205 (UniProt Q99986) | -0.141
WNK3 C949 (UniProt Q9BYP7) | 0.0328
VPS72 C292 (UniProt Q15906) | -0.138
WDR81 C207 (UniProt Q562E7) | 0.23
WDFY3 C143 (UniProt Q8IZQ1) | -0.0671
WDCP C302 (UniProt Q9H6R7) | 0.114
WDR81 C1653 (UniProt Q562E7) | -0.109
WDR53 C63 (UniProt Q7Z5U6) | -0.0933
XPO1 C119 (UniProt O14980) | -0.102
YEATS2 C338 (UniProt Q9ULM3) | -0.26

Quoted from the listing.
log2 mean competition ratio with WDFY1 C287 (UniProt Q8IWB7) is entered as -0.278
log2 mean competition ratio with WDR62 C826 (UniProt O43379) is entered as 0.263

Continuation.

Target | log2 mean competition ratio
WDSUB1 C410 (UniProt Q8N9V3) | 0.0397
VPS4B C240 (UniProt O75351) | 0.25
ZC3H11A C431 (UniProt O75152) | 0.0167
ZBTB44 C167 (UniProt Q8NCP5) | 0.0642
WDR19 C846 (UniProt Q8NEZ3) | 0.056
VPS35 C640 | 0.247
YY1AP1 C734 (UniProt Q9H869) | -0.4
WDR1 C382 (UniProt O75083) | -0.0845
YJU2 C83 (UniProt Q9BW85) | -0.196
XPO1 C99 (UniProt O14980) | -0.0934
ZBED4 C326 (UniProt O75132) | 0.537
WDFY3 C575 (UniProt Q8IZQ1) | 0.00153
WDR12 C97 (UniProt Q9GZL7) | -0.222
WDR81 C76 (UniProt Q562E7) | 0.28
WLS C71 (UniProt Q5T9L3) | -0.0154
WDR3 C625 (UniProt Q9UNX4) | 0.132
WDFY3 C1945 (UniProt Q8IZQ1) | -0.141
YDJC C119 (UniProt A8MPS7) | 0.0275
